Assay results taken from publication PMC12723715.
Results are given in words; binding and its absence hold for the method and conditions named. In cells and extracts the contact can be indirect. Some entries that bind do so weakly or less than the wild type.

Amino acid sequences for entries named in this document (tags omitted).
UniProt Q14152: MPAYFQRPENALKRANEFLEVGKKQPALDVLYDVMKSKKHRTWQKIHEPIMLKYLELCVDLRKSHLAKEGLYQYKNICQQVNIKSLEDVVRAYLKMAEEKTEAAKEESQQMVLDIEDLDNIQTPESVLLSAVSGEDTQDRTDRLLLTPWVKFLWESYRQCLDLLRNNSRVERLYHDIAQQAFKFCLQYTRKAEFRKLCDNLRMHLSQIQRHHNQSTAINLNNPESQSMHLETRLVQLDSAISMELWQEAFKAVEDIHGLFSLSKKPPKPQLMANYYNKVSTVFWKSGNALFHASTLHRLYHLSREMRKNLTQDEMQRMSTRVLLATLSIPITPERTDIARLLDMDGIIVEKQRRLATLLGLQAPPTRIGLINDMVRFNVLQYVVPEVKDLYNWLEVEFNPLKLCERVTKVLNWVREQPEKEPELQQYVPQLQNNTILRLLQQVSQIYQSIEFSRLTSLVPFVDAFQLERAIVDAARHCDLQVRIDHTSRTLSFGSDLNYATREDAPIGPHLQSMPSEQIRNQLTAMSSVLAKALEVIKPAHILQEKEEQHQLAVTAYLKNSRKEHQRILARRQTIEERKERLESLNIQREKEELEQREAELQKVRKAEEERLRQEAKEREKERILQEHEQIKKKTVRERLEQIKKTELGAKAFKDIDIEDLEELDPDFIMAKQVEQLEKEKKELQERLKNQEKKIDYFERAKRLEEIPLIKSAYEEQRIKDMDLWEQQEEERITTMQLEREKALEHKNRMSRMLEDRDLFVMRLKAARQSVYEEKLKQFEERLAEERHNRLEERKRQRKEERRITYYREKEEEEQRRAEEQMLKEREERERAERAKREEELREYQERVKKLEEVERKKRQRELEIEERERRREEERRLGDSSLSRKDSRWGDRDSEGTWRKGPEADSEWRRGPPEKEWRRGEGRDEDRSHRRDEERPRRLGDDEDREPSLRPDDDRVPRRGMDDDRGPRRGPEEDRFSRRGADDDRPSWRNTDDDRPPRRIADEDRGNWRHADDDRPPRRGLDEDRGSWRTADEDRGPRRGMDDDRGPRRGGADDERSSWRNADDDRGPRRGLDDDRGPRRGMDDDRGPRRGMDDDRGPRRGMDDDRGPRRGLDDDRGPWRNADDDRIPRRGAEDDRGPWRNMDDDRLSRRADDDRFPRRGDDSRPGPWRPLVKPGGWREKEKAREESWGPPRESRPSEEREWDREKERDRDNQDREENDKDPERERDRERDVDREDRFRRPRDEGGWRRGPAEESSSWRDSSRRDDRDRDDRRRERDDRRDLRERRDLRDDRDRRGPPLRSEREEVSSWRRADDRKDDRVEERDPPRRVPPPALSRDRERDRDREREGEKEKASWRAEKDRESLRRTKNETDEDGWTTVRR
UniProt Q99613: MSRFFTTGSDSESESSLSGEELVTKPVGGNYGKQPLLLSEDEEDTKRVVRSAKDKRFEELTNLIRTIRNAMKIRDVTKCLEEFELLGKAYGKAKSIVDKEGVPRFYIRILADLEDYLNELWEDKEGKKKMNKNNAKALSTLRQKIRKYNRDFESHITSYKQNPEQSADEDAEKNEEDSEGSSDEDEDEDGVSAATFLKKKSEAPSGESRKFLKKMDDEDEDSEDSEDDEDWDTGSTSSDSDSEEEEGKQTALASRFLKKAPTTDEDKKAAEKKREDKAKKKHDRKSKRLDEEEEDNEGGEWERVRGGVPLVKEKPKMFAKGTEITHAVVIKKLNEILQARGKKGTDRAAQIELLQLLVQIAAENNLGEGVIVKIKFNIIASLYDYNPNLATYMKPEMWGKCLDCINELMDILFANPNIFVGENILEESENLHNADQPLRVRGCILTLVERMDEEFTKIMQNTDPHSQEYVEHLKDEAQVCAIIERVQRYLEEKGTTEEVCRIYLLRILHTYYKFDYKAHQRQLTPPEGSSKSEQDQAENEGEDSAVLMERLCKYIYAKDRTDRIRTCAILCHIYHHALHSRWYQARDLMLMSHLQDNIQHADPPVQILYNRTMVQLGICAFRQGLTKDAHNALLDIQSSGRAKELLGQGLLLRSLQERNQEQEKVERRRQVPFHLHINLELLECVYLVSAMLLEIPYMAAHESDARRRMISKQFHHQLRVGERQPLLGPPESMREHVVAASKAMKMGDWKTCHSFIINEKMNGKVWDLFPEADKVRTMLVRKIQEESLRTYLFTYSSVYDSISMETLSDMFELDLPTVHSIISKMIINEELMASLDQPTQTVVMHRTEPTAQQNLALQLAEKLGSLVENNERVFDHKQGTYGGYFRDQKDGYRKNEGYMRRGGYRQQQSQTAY
UniProt P60228: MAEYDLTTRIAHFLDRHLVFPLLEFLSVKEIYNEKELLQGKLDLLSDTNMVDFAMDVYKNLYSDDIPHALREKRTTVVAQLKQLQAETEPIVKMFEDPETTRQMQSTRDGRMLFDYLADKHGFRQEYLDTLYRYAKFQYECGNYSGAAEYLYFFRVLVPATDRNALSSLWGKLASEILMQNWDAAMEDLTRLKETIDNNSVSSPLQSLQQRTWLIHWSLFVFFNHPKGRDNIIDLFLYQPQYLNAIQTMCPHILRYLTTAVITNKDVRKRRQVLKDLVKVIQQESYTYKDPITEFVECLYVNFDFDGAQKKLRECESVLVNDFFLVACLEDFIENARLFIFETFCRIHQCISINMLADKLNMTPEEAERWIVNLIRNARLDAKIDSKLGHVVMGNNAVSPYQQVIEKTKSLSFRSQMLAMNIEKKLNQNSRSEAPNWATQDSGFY
UniProt Q9UBQ5: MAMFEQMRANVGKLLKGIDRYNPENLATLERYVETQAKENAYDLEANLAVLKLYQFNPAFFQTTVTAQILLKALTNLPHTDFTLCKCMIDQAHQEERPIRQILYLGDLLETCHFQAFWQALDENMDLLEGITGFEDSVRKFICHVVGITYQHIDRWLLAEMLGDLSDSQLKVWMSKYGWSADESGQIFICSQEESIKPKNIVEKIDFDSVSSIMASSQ
UniProt O00303: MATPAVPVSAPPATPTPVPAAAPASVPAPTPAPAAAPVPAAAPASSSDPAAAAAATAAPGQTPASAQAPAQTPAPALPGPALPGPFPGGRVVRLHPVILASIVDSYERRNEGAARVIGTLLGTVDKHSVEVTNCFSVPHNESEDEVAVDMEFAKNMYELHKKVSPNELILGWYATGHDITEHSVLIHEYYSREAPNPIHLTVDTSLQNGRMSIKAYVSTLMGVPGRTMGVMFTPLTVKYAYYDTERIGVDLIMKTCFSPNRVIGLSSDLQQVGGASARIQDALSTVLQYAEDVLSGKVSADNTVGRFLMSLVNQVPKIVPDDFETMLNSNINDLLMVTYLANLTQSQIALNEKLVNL
UniProt Q9Y262: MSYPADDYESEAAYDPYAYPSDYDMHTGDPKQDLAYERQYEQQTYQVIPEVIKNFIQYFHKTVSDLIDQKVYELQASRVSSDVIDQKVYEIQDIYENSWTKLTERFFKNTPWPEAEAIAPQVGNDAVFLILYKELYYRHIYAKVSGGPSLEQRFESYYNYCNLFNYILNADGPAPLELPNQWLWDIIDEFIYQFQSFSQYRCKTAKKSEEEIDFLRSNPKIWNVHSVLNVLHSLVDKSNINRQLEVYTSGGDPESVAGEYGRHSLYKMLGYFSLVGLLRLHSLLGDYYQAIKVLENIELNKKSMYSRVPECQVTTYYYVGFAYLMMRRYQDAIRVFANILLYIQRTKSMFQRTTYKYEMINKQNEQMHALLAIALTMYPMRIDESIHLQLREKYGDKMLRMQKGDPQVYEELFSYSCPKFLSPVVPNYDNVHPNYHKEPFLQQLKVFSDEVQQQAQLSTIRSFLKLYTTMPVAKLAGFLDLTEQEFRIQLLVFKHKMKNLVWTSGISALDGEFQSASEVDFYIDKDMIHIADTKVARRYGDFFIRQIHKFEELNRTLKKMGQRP

What was measured:
[1] = biological target: human eIF3a with STREP tag in place of the FLAG tag (human) (UniProt Q14152); test: pull-down + SEC; modified system: Strep tag on eIF3a (none on eIF3c); same workflow (Strep affinity, Heparin, SEC); analytical SEC on Superose6 3.2/300 and SDS-PAGE of fractions
[2] = biological target: human eIF3c with C-terminal Strep tag (human) (UniProt Q99613); test: pull-down + SEC; eIF3-∆bgi expressed without eIF3b, g, i; Strep tag on eIF3c captured by Streptactin chromatography from lysate; Heparin; Superose6 SEC; SDS-PAGE, Western blot, mass photometry at 50 nM
[3] = biological target: human eIF3c with C-terminal Strep tag (human) (UniProt Q99613); test: pull-down; small-scale test: Strep tag on eIF3c captured on MagStrep Strep-Tactin XT beads from cleared Hi5 lysate (co-infection pBIG2AB/CD; hypotonic lysis buffer), 2 h at 4°C; 3 washes with 20 mM Hepes-KOH pH 7.5, 100 mM KCl, 10% glycerol, 1 mM DTT; eluate on SDS-PAGE, Coomassie

binding [1] | binding [2] | binding [3] | Substance
binds | – | – | human eIF3e (from UniProt P60228 1-445)
binds | binds | binds | human eIF3k (from UniProt Q9UBQ5 1-218)
binds | binds | binds | human eIF3f (from UniProt O00303 1-357)
binds | binds | binds | human eIF3l (from UniProt Q9Y262 1-564)
